Source: patent publication US9040033B2, “Hydroxypropyl methyl cellulose acetate succinate with enhanced acetate and succinate substitution” (Dow Global Technologies LLC, priority 2010, dated 2015)
For at least one compound, name, drawing or mass did not settle the structure.

Legend:
[1] = Itraconazole precipitation inhibition in PBS containing dissolved polymer; assay type: physicochemical; conditions: PBS pH 6.5, 37° C., 500 μg/mL if all dissolved
[2] = Microcentrifuge dissolution of 25 wt % itraconazole spray-dried dispersions in MFDS; assay type: physicochemical; conditions: dissolved itraconazole; SDD or bulk in MFDS pH 6.5, 37° C.

SMILES: CCC(C)n1ncn(-c2ccc(N3CCN(c4ccc(OCC5COC(Cn6cncn6)(c6ccc(Cl)cc6Cl)O5)cc4)CC3)cc2)c1=O (stereo not drawn) [Itraconazole bulk, Itraconazole]
- C1200 ([1]; dissolved itraconazole at 1200 min): 60 µg/mL
- AUC90 ([1]; dissolved itraconazole, 0-90 min): 3,600 min * μg/mL
- Cmax90 ([1]; dissolved itraconazole, maximum in first 90 min): 110 µg/mL
- AUC90 [2]: 300 µg·min/mL
- C1200 [2]: 0 µg/mL
- Cmax90 [2]: 0 ng/mL
